Test results as given in patent US20130150430A1, “Methods for Impairing the P53/HDM2 Auto-Regulatory Loop in Multiple Myeloma Development Using mIR-192, mIR-194 and mIR-215” (THE OHIO STATE UNIVERSITY, priority 2011, published 2013).
Some of these results come from one statement about several compounds together.

System: IGF-1R and IGF-1 3′ UTRs
Assay: Luciferase reporter assay, IGF-1R and IGF-1 3' UTRs
Assay type: cell-based, human
Settings: co-transfected into MM1s cells; compared to miR-194 and Scr

Row | Substance | drop of luciferase activity
1 | miR-192: microRNA, p53-activated, down-regulated in MM; transfected as miRNA precursor (Ambion) or lentivector; SEQ ID NO:56 (CUGACCUAUGAAUUGACAGCC; listed as RNA, chemistry not given here; listed as Homo sapiens) | 40-50%
2 | miR-215: microRNA, p53-activated, down-regulated in MM; transfected as miRNA precursor (Ambion) or lentivector; SEQ ID NO:58 (AUGACCUAUGAAUUGACAGAC; listed as RNA, chemistry not given here; listed as Homo sapiens) | 40-50%
